# According to the supplement of paper PMC10689618:
# Where a name gives a salt, the structure may show the parent alone. This is one part of the list. Many values rest on one well or one pass, so single values are uncertain.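 Labelled rat cortical synaptosomes were engulfed by primary human fetal astrocytes. Engulfment equaled a red/green ratio, corrected for calcein live-cell signal and normalized to the plate median. Compounds were toxic when calcein dropped over 30%, and reduced phagocytosis when below 70% of the median above 5 µM.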
# System: Human fetal astrocytes
# Experiment: loss of total cells relative to no-compound high-control median (toxicity); higher = more toxic (fewer cells)
# Details: 1.39 µM; 24 h
row,SMILES,loss of total cells [%]
1,COc1cc(O)cc(OC)c1OC,-12
2,Nc1ccc(C(=O)O)c(O)c1,-39.8
3,Cc1cc(-c2ccccc2)nnc1NCCN1CCOCC1,-21.6
4,C=C1c2c(Cl)ccc(O)c2C(O)=C2C(=O)[C@]3(O)C(O)=C(C(N)=O)C(=O)[C@@H](N(C)C)[C@@H]3[C@@H](O)[C@H]12.O=C(O)c1cc(S(=O)(=O)O)ccc1O,-19.1
5,CCCCCCCCCc1ccc(OCCOCCOCCOCCOCCOCCOCCOCCOCCO)cc1,22.1
6,O=C1CCc2ccc(OCCCCN3CCN(c4cccc(Cl)c4Cl)CC3)cc2N1,-15.6
7,NC(=O)c1cc[n+](CC2=C(C(=O)O)N3C(=O)[C@@H](NC(=O)[C@@H](c4ccccc4)S(=O)(=O)[O-])[C@H]3SC2)cc1,6.5
8,CC(C)=CC1C(C(=O)O)C1(C)C (stereo not given),-18
9,CCC(C)C(=O)OC1[C@@H]2CC3=C4CC(=O)O[C@@H](c5ccoc5)[C@]4(C)CCC3[C@@](C)(C2=O)[C@@H](CC(=O)OC)C1(C)C (stereo not given in full),9.7
10,C/C=C1\[C@H]2C=C(C)C[C@]1(N)c1ccc(=O)[nH]c1C2,-23.8
11,Nc1cc(C(Cl)=C(Cl)Cl)c(S(N)(=O)=O)cc1S(N)(=O)=O,-23.4
12,CC(C)(C(=O)O)c1ccc(C(O)CCCN2CCC(C(O)(c3ccccc3)c3ccccc3)CC2)cc1 (stereo not given) [Fexofenadine hydrochloride],17.7
13,CO[C@@]1(NC(=O)C(C(=O)O)c2ccc(O)cc2)C(=O)N2C(C(=O)O)=C(CSc3nnnn3C)CO[C@@H]21 (stereo not given in full),-19.1
14,Cc1ncc(CO)c(CO)c1O,25.8
15,CCOc1ccc(NC(C)=O)cc1,13.9

# Filtered by structure, those above containing a carbonyl joined to an NH by a bond outside any ring.
row,SMILES,loss of total cells [%]
4,C=C1c2c(Cl)ccc(O)c2C(O)=C2C(=O)[C@]3(O)C(O)=C(C(N)=O)C(=O)[C@@H](N(C)C)[C@@H]3[C@@H](O)[C@H]12.O=C(O)c1cc(S(=O)(=O)O)ccc1O,-19.1
7,NC(=O)c1cc[n+](CC2=C(C(=O)O)N3C(=O)[C@@H](NC(=O)[C@@H](c4ccccc4)S(=O)(=O)[O-])[C@H]3SC2)cc1,6.5
13,CO[C@@]1(NC(=O)C(C(=O)O)c2ccc(O)cc2)C(=O)N2C(C(=O)O)=C(CSc3nnnn3C)CO[C@@H]21 (stereo not given in full),-19.1
15,CCOc1ccc(NC(C)=O)cc1,13.9
